Measured data: PubChem BioAssay AID1159584 (Peter MacCallum Cancer Centre, 2016)

Purpose: 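Genes that CDH1-null MCF10A cells selectively depend on to survive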 (primary screen)
Cell system: human MCF10A breast epithelial cells, parental and CDH1-null
Reagent: siRNA against human genes
Measured: 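Cell viability by CellTiter-Glo ATP luminescence, each line scaled to the mean of mock wells across plates, then CDH1-null over parental ratio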
Scale: CDH1-null / parental viability ratio: higher = CDH1-null cells survive relatively better than parental
The deposit covers about 18,000 reagents; shown is a part drawn at random. Not all columns of the deposit are shown. No sequences are given here. The record does not give: the amount of reagent, the time to read-out.

SHB (SH2 domain containing adaptor protein B) [SID135623815] gave CDH1-null / parental viability ratio 1.04. Depletion of CDIPT (CDP-diacylglycerol--inositol 3-phosphatidyltransferase) [SID135621809] resulted in: CDH1-null / parental viability ratio 0.9. After knock-down of SSX4 (SSX family member 4) [SID134321181], the screen gave CDH1-null / parental viability ratio 0.95. After knock-down of DDAH1 (dimethylarginine dimethylaminohydrolase 1) [SID134313395] the results were CDH1-null / parental viability ratio 1.16. After knock-down of CIMAP1C (ciliary microtubule associated protein 1C) [SID152148786] the results were CDH1-null / parental viability ratio 0.68. RSPO4 (R-spondin 4) [SID135624445] gave CDH1-null / parental viability ratio 0.92.

Knock-down of RAB43 (RAB43, member RAS oncogene family) [SID152150714] came out at: CDH1-null / parental viability ratio 1.15. AR (androgen receptor) [SID135620666] showed CDH1-null / parental viability ratio 1.08. Silencing of CD4 (CD4 molecule) [SID135620958] came out at: CDH1-null / parental viability ratio 0.92. ZZZ3 (zinc finger ZZ-type containing 3) [SID152154866] showed CDH1-null / parental viability ratio 1.09. Depletion of ROS1 (ROS proto-oncogene 1, receptor tyrosine kinase) [SID56478551] gave: CDH1-null / parental viability ratio 0.62. UFD1 (ubiquitin recognition factor in ER associated degradation 1) [SID135623416] gave CDH1-null / parental viability ratio 1.16.

For KCNJ6 (potassium inwardly rectifying channel subfamily J member 6) [SID134311669], the entry reads CDH1-null / parental viability ratio 1.17. After knock-down of KANSL3 (KAT8 regulatory NSL complex subunit 3) [SID135623239] the results were CDH1-null / parental viability ratio 1.17. Knock-down of WDR27 (WD repeat domain 27) [SID152148576] came out at: CDH1-null / parental viability ratio 0.97. Against PHC1 (polyhomeotic homolog 1) [SID152153098] the deposit lists CDH1-null / parental viability ratio 1.19. For TLR9 (toll like receptor 9) [SID134310255], the entry reads CDH1-null / parental viability ratio 1.18. With knock-down of ZNF165 (zinc finger protein 165) [SID135622200] the results were CDH1-null / parental viability ratio 0.94.

With knock-down of OR10G9 (olfactory receptor family 10 subfamily G member 9) [SID135624577] the results were CDH1-null / parental viability ratio 0.9. Knock-down of CREB3 (cAMP responsive element binding protein 3) [SID134321406] resulted in: CDH1-null / parental viability ratio 1.12. Against HADHA [SID135621783], the entry reads CDH1-null / parental viability ratio 0.94. KLHL28 (kelch like family member 28) [SID152152049] showed CDH1-null / parental viability ratio 0.88. Against CNTLN (centlein) [SID152148351], the entry reads CDH1-null / parental viability ratio 0.94. Knock-down of LIN54 (lin-54 DREAM MuvB core complex component) [SID134323124] gave: CDH1-null / parental viability ratio 0.93.

MTSS1 (MTSS I-BAR domain containing 1) [SID152150070] scored CDH1-null / parental viability ratio 0.96. Against YWHAZ [SID134309850] the deposit lists CDH1-null / parental viability ratio 0.65. Against STK17A (serine/threonine kinase 17a) [SID152148521], the values are CDH1-null / parental viability ratio 0.73. After knock-down of LIPM (lipase family member M) [SID135624559], the screen gave CDH1-null / parental viability ratio 1.14. Against NUP188 (nucleoporin 188) [SID152152869], the entry reads CDH1-null / parental viability ratio 1.1. Against DES (desmin) [SID135622164], the entry reads CDH1-null / parental viability ratio 1.15.

Knock-down of CETN1 (centrin 1) [SID134316148] resulted in: CDH1-null / parental viability ratio 1.1. For OGG1 (8-oxoguanine DNA glycosylase) [SID135620941], the values are CDH1-null / parental viability ratio 1.23. For PCOLCE (procollagen C-endopeptidase enhancer) [SID152156755] the deposit lists CDH1-null / parental viability ratio 0.99. Depletion of FAM90A1 (family with sequence similarity 90 member A1) [SID152155034] came out at: CDH1-null / parental viability ratio 0.71. With knock-down of ZNF471 (zinc finger protein 471) [SID135622664] the results were CDH1-null / parental viability ratio 1.12. Depletion of SNTN (sentan, cilia apical structure protein) [SID152148457] resulted in: CDH1-null / parental viability ratio 1.01.

Against ADH1C (alcohol dehydrogenase 1C (class I), gamma polypeptide) [SID135621206] the deposit lists CDH1-null / parental viability ratio 0.84. CD79A (CD79a molecule) [SID152147353] showed CDH1-null / parental viability ratio 1.31. Knock-down of POFUT2 (protein O-fucosyltransferase 2) [SID152148985] resulted in: CDH1-null / parental viability ratio 1.05. Against KCTD14 (potassium channel tetramerization domain containing 14) [SID152155283], the entry reads CDH1-null / parental viability ratio 1.11. Depletion of SEMA3G (semaphorin 3G) [SID134324154] gave: CDH1-null / parental viability ratio 0.96. With knock-down of SYNPO (synaptopodin) [SID135624194], the screen gave CDH1-null / parental viability ratio 0.66.

With knock-down of HSCB (HscB mitochondrial iron-sulfur cluster cochaperone) [SID152151899], the screen gave CDH1-null / parental viability ratio 0.93. OR5L1 (olfactory receptor family 5 subfamily L member 1) [SID152149058] showed CDH1-null / parental viability ratio 1. For IER2 (immediate early response 2) [SID134323643], the values are CDH1-null / parental viability ratio 1.23.

Part of the list above, set out differently.
{"target": "LIN54 (lin-54 DREAM MuvB core complex component)", "PubChem SID": "SID134323124", "CDH1-null / parental viability ratio": 0.93}
{"target": "MTSS1 (MTSS I-BAR domain containing 1)", "PubChem SID": "SID152150070", "CDH1-null / parental viability ratio": 0.96}
{"target": "YWHAZ", "PubChem SID": "SID134309850", "CDH1-null / parental viability ratio": 0.65}
{"target": "STK17A (serine/threonine kinase 17a)", "PubChem SID": "SID152148521", "CDH1-null / parental viability ratio": 0.73}
